Drawing on publication PMC9935546, this text covers binding for two substances.

Sequences of proteins named here, by UniProt entry; tags and fusion partners are left off.
UniProt P19474: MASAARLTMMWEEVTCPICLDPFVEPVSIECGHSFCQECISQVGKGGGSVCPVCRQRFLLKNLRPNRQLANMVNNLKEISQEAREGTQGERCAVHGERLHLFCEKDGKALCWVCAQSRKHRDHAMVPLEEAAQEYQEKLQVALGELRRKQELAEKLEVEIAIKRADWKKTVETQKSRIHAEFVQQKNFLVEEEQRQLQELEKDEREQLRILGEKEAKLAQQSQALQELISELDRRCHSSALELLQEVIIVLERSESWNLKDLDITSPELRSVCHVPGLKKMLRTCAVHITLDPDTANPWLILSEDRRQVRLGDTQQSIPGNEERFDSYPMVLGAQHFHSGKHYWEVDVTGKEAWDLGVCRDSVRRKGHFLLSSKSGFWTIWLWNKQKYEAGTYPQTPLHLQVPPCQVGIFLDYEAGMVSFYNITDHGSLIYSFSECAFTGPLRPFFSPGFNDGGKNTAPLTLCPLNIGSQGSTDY
UniProt Q07812: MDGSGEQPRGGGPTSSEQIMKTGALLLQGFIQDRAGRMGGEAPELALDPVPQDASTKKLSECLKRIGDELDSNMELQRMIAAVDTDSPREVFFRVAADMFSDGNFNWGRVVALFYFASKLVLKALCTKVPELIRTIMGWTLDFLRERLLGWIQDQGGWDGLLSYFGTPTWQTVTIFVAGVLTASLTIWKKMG

Test [1] addresses TRIM21 (construct not told; tests with IFI16, BAX, VDAC1 and VDAC3) (UniProt P19474). The experiment in a line: co-IP; TRIM21 and BAX; cells and antibodies not stated (Supplementary Fig. 3a).
In test [2] the target is T1, HA-tagged VDAC2 (voltage-dependent anion-selective channel protein 2) (UniProt P45880).
T1 sequence: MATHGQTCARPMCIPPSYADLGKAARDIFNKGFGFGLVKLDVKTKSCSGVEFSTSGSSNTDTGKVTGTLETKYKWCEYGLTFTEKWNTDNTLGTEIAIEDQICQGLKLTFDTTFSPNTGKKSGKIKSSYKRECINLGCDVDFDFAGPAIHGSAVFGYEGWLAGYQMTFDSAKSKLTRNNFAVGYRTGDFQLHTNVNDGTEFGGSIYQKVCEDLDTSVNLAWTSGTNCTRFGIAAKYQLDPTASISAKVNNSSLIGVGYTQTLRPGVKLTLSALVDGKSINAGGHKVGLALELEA
Description: co-IP; HEK293T cells with exogenous TRIM21 and VDAC2; lysates precipitated with anti-FLAG or anti-HA antibody overnight at 4 °C, protein A/G magnetic beads, Western blot. In general terms: A western blot detects proteins with antibodies after separation by electrophoresis.

Results are given in words; binding and its absence hold for the method and conditions named. Binding seen in cells or lysates may run through a third protein. Some entries that bind do so weakly or less than the wild type. For some assays here: Tags and fused reporters may be left off the sequences shown.

For BAX (from UniProt Q07812 1-192), the binding result in test [1] is “no binding”.
“FLAG-tagged full-length TRIM21 (tripartite motif-containing 21) (from UniProt P19474 1-475)”: the binding entry in test [2] was “binds”.
